{
  "source": "the supplement of paper PMC8728848",
  "binders": {"B1": {"name": "Epa8 (Candida glabrata) (protein)", "chain": "MGSSHHHHHHSSGLVPRGSHMASSRALSDYPLGCSPLLGTKLTPGLSMELYEYPLDNHGIGPHCWDPAYLNPEYPRTGFESHKLIGTAQNVMSLNFEHRTQDCHVEFSNLPASFNFPDQITLTNFTMLLYGYFKPKESGRYRFHMEADDLLLMNLGAGNAFDCCAHEATRNNLGDYIAYDIWAGTRKDVEVFLEKEVFYPLRLFFNNRDGRAALDFSYYLNGATEPGTDIPELLFSLPDGESCPAYI"}},
  "test_in_all_cases": "glycan array binding signal (z-score within array); higher = stronger binding",
  "settings_in_all_cases": "glycan notation: IUPAC condensed, linker removed",
  "key": {"[1]": {"biological_target": "Neu5Ac(a2-3)Gal(b1-3)GlcNAc", "method_in_brief": "(§1)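 Columns mapping to the same glycan were averaged after glycan names were converted to IUPAC-condensed notation. The data come from 3228 arrays in the Consortium for Functional Glycomics database, limited to those with an available protein sequence. Binding is reported as a within-array Z-score averaged across arrays of one protein sequence and across linkers.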"}, "[2]": {"biological_target": "Neu5Ac(a2-3)Gal(b1-3)GlcNAc(b1-2)Man", "method_in_brief": "as §1"}, "[3]": {"biological_target": "Neu5Ac(a2-3)Gal(b1-3)GlcNAc(b1-2)Man(a1-3)[GlcNAc(b1-4)][Neu5Ac(a2-3)Gal(b1-3)GlcNAc(b1-2)Man(a1-6)]Man(b1-4)GlcNAc(b1-4)GlcNAc", "method_in_brief": "as §1"}, "[4]": {"biological_target": "Neu5Ac(a2-3)Gal(b1-3)GlcNAc(b1-2)Man(a1-3)[Neu5Ac(a2-3)Gal(b1-3)GlcNAc(b1-2)Man(a1-6)]Man(b1-4)GlcNAc(b1-4)GlcNAc", "method_in_brief": "as §1"}, "[5]": {"biological_target": "Neu5Ac(a2-3)Gal(b1-3)GlcNAc(b1-2)[Neu5Ac(a2-3)Gal(b1-3)GlcNAc(b1-4)]Man(a1-6)[Neu5Ac(a2-3)Gal(b1-3)GlcNAc(b1-2)Man(a1-3)]Man(b1-4)GlcNAc(b1-4)GlcNAc", "method_in_brief": "as §1"}, "[6]": {"biological_target": "Neu5Ac(a2-3)Gal(b1-3)GlcNAc(b1-3)Gal(b1-3)GlcNAc", "method_in_brief": "as §1"}, "[7]": {"biological_target": "Neu5Ac(a2-3)Gal(b1-3)GlcNAc(b1-3)Gal(b1-4)GlcNAc", "method_in_brief": "as §1"}, "[8]": {"biological_target": "Neu5Ac(a2-3)Gal(b1-3)GlcNAc(b1-3)GalNAc", "method_in_brief": "as §1"}, "[9]": {"biological_target": "Neu5Ac(a2-3)Gal(b1-3)GlcNAc(b1-6)GalNAc", "method_in_brief": "as §1"}, "[10]": {"biological_target": "Neu5Ac(a2-3)Gal(b1-3)GlcNAc6S", "method_in_brief": "as §1"}, "[11]": {"biological_target": "Neu5Ac(a2-3)Gal(b1-3)[Fuc(a1-4)]GlcNAc", "method_in_brief": "as §1"}, "[12]": {"biological_target": "Neu5Ac(a2-3)Gal(b1-3)[Fuc(a1-4)]GlcNAc(b1-3)Gal(b1-3)[Fuc(a1-4)]GlcNAc", "method_in_brief": "as §1"}, "[13]": {"biological_target": "Neu5Ac(a2-3)Gal(b1-3)[Fuc(a1-4)]GlcNAc(b1-3)Gal(b1-4)[Fuc(a1-3)]GlcNAc", "method_in_brief": "as §1"}, "[14]": {"biological_target": "Neu5Ac(a2-3)Gal(b1-3)[GlcNAc(b1-6)]GalNAc", "method_in_brief": "as §1"}, "[15]": {"biological_target": "Neu5Ac(a2-3)Gal(b1-3)[Neu5Ac(a2-6)]GalNAc", "method_in_brief": "as §1"}, "[16]": {"biological_target": "Neu5Ac(a2-3)Gal(b1-3)[Neu5Ac(a2-6)]GlcNAc(b1-3)[Fuc(a1-3)[Gal(b1-4)]GlcNAc(b1-6)]Gal(b1-4)Glc", "method_in_brief": "as §1"}, "[17]": {"biological_target": "Neu5Ac(a2-3)Gal(b1-3)]Neu5Ac(a2-3)Gal(b1-4)]GlcNAc", "method_in_brief": "as §1"}, "[18]": {"biological_target": "Neu5Ac(a2-3)Gal(b1-4)Glc", "method_in_brief": "as §1"}, "[19]": {"biological_target": "Neu5Ac(a2-3)Gal(b1-4)GlcNAc", "method_in_brief": "as §1"}, "[20]": {"biological_target": "Neu5Ac(a2-3)Gal(b1-4)GlcNAc(b1-2)Man", "method_in_brief": "as §1"}, "[21]": {"biological_target": "Neu5Ac(a2-3)Gal(b1-4)GlcNAc(b1-2)Man(a1-3)[GlcNAc(b1-4)][Neu5Ac(a2-3)Gal(b1-4)GlcNAc(b1-2)Man(a1-6)]Man(b1-4)GlcNAc(b1-4)GlcNAc", "method_in_brief": "as §1"}, "[22]": {"biological_target": "Neu5Ac(a2-3)Gal(b1-4)GlcNAc(b1-2)Man(a1-3)[Neu5Ac(a2-3)Gal(b1-4)GlcNAc(b1-2)Man(a1-6)]Man(b1-4)GlcNAc(b1-4)GlcNAc", "method_in_brief": "as §1"}, "[23]": {"biological_target": "Neu5Ac(a2-3)Gal(b1-4)GlcNAc(b1-2)Man(a1-3)[Neu5Ac(a2-3)Gal(b1-4)GlcNAc(b1-2)Man(a1-6)]Man(b1-4)GlcNAc(b1-4)[Fuc(a1-6)]GlcNAc", "method_in_brief": "as §1"}, "[24]": {"biological_target": "Neu5Ac(a2-3)Gal(b1-4)GlcNAc(b1-2)Man(a1-3)[Neu5Ac(a2-6)Gal(b1-4)GlcNAc(b1-2)Man(a1-6)]Man(b1-4)GlcNAc(b1-4)GlcNAc", "method_in_brief": "as §1"}, "[25]": {"biological_target": "Neu5Ac(a2-3)Gal(b1-4)GlcNAc(b1-2)[Neu5Ac(a2-3)Gal(b1-4)GlcNAc(b1-4)]Man(a1-3)[GlcNAc(b1-4)][Neu5Ac(a2-3)Gal(b1-4)GlcNAc(b1-2)[Neu5Ac(a2-3)Gal(b1-4)GlcNAc(b1-6)]Man(a1-6)]Man(b1-4)GlcNAc(b1-4)GlcNAc", "method_in_brief": "as §1"}, "[26]": {"biological_target": "Neu5Ac(a2-3)Gal(b1-4)GlcNAc(b1-2)[Neu5Ac(a2-3)Gal(b1-4)GlcNAc(b1-4)]Man(a1-3)[GlcNAc(b1-4)][Neu5Ac(a2-3)Gal(b1-4)GlcNAc(b1-4)Man(a1-6)]Man(b1-4)GlcNAc(b1-4)GlcNAc", "method_in_brief": "as §1"}, "[27]": {"biological_target": "Neu5Ac(a2-3)Gal(b1-4)GlcNAc(b1-2)[Neu5Ac(a2-3)Gal(b1-4)GlcNAc(b1-6)]Man(a1-6)[Neu5Ac(a2-3)Gal(b1-4)GlcNAc(b1-2)Man(a1-3)][GlcNAc(b1-4)]Man(b1-4)GlcNAc(b1-4)GlcNAc", "method_in_brief": "as §1"}, "[28]": {"biological_target": "Neu5Ac(a2-3)Gal(b1-4)GlcNAc(b1-3)Gal", "method_in_brief": "as §1"}, "[29]": {"biological_target": "Neu5Ac(a2-3)Gal(b1-4)GlcNAc(b1-3)Gal(b1-3)GlcNAc", "method_in_brief": "as §1"}, "[30]": {"biological_target": "Neu5Ac(a2-3)Gal(b1-4)GlcNAc(b1-3)Gal(b1-4)GlcNAc", "method_in_brief": "as §1"}, "[31]": {"biological_target": "Neu5Ac(a2-3)Gal(b1-4)GlcNAc(b1-3)Gal(b1-4)GlcNAc(b1-2)Man(a1-3)[Neu5Ac(a2-3)Gal(b1-4)GlcNAc(b1-3)Gal(b1-4)GlcNAc(b1-2)Man(a1-6)]Man(b1-4)GlcNAc(b1-4)GlcNAc", "method_in_brief": "as §1"}, "[32]": {"biological_target": "Neu5Ac(a2-3)Gal(b1-4)GlcNAc(b1-3)Gal(b1-4)GlcNAc(b1-3)Gal(b1-4)GlcNAc", "method_in_brief": "as §1"}, "[33]": {"biological_target": "Neu5Ac(a2-3)Gal(b1-4)GlcNAc(b1-3)Gal(b1-4)GlcNAc(b1-3)Gal(b1-4)GlcNAc(b1-2)Man(a1-3)[Neu5Ac(a2-3)Gal(b1-4)GlcNAc(b1-3)Gal(b1-4)GlcNAc(b1-3)Gal(b1-4)GlcNAc(b1-2)Man(a1-6)]GalNAc", "method_in_brief": "as §1"}, "[34]": {"biological_target": "Neu5Ac(a2-3)Gal(b1-4)GlcNAc(b1-3)Gal(b1-4)GlcNAc(b1-3)GalNAc", "method_in_brief": "as §1"}, "[35]": {"biological_target": "Neu5Ac(a2-3)Gal(b1-4)GlcNAc(b1-3)Gal(b1-4)GlcNAc(b1-3)[Neu5Ac(a2-3)Gal(b1-4)GlcNAc(b1-3)Gal(b1-4)GlcNAc(b1-6)]GalNAc", "method_in_brief": "as §1"}, "[36]": {"biological_target": "Neu5Ac(a2-3)Gal(b1-4)GlcNAc(b1-3)Gal(b1-4)GlcNAc(b1-6)[Gal(b1-3)]GalNAc", "method_in_brief": "as §1"}, "[37]": {"biological_target": "Neu5Ac(a2-3)Gal(b1-4)GlcNAc(b1-3)Gal(b1-4)[Fuc(a1-3)]GlcNAc", "method_in_brief": "as §1"}, "[38]": {"biological_target": "Neu5Ac(a2-3)Gal(b1-4)GlcNAc(b1-3)GalNAc", "method_in_brief": "as §1"}},
  "note": "The other results are listed elsewhere or left out.",
  "data": [
    {"binder": "B1", "values": [
      {"measurement": "glycan array binding signal (z-score)", "setting": "[1]", "value": 0.106},
      {"measurement": "glycan array binding signal (z-score)", "setting": "[2]", "value": -1.27},
      {"measurement": "glycan array binding signal (z-score)", "setting": "[3]", "value": 1.49},
      {"measurement": "glycan array binding signal (z-score)", "setting": "[4]", "value": 0.584},
      {"measurement": "glycan array binding signal (z-score)", "setting": "[5]", "value": -0.06},
      {"measurement": "glycan array binding signal (z-score)", "setting": "[6]", "value": -2},
      {"measurement": "glycan array binding signal (z-score)", "setting": "[7]", "value": -0.736},
      {"measurement": "glycan array binding signal (z-score)", "setting": "[8]", "value": 0.505},
      {"measurement": "glycan array binding signal (z-score)", "setting": "[9]", "value": -0.318},
      {"measurement": "glycan array binding signal (z-score)", "setting": "[10]", "value": 0.496},
      {"measurement": "glycan array binding signal (z-score)", "setting": "[11]", "value": -0.008},
      {"measurement": "glycan array binding signal (z-score)", "setting": "[12]", "value": -0.132},
      {"measurement": "glycan array binding signal (z-score)", "setting": "[13]", "value": -0.114},
      {"measurement": "glycan array binding signal (z-score)", "setting": "[14]", "value": 0.423},
      {"measurement": "glycan array binding signal (z-score)", "setting": "[15]", "value": -0.136},
      {"measurement": "glycan array binding signal (z-score)", "setting": "[16]", "value": -0.251},
      {"measurement": "glycan array binding signal (z-score)", "setting": "[17]", "value": 0.232},
      {"measurement": "glycan array binding signal (z-score)", "setting": "[18]", "value": 0.086},
      {"measurement": "glycan array binding signal (z-score)", "setting": "[19]", "value": -0.315},
      {"measurement": "glycan array binding signal (z-score)", "setting": "[20]", "value": 1.94},
      {"measurement": "glycan array binding signal (z-score)", "setting": "[21]", "value": -0.657},
      {"measurement": "glycan array binding signal (z-score)", "setting": "[22]", "value": -0.277},
      {"measurement": "glycan array binding signal (z-score)", "setting": "[23]", "value": 0.207},
      {"measurement": "glycan array binding signal (z-score)", "setting": "[24]", "value": 0.195},
      {"measurement": "glycan array binding signal (z-score)", "setting": "[25]", "value": -0.346},
      {"measurement": "glycan array binding signal (z-score)", "setting": "[26]", "value": -0.243},
      {"measurement": "glycan array binding signal (z-score)", "setting": "[27]", "value": -1.18},
      {"measurement": "glycan array binding signal (z-score)", "setting": "[28]", "value": 0.177},
      {"measurement": "glycan array binding signal (z-score)", "setting": "[29]", "value": -0.063},
      {"measurement": "glycan array binding signal (z-score)", "setting": "[30]", "value": -0.268},
      {"measurement": "glycan array binding signal (z-score)", "setting": "[31]", "value": 0.013},
      {"measurement": "glycan array binding signal (z-score)", "setting": "[32]", "value": -0.73},
      {"measurement": "glycan array binding signal (z-score)", "setting": "[33]", "value": 1.14},
      {"measurement": "glycan array binding signal (z-score)", "setting": "[34]", "value": -0.164},
      {"measurement": "glycan array binding signal (z-score)", "setting": "[35]", "value": 0.849},
      {"measurement": "glycan array binding signal (z-score)", "setting": "[36]", "value": 0.126},
      {"measurement": "glycan array binding signal (z-score)", "setting": "[37]", "value": -0.418},
      {"measurement": "glycan array binding signal (z-score)", "setting": "[38]", "value": -0.136}
    ]}
  ]
}
